Assay results taken from paper PMC6023610.

By UniProt entry, the sequences of proteins in these tests, tags left out. Where a name states a change or a piece, a line headed by the entry shows the natural chain unless it says otherwise.
UniProt Q5CZV3: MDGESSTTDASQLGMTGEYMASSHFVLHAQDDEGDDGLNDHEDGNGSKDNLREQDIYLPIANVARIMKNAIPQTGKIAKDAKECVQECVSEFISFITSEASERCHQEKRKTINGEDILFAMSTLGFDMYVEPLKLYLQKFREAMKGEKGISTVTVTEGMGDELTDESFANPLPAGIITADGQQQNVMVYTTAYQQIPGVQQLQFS
UniProt A0A8M1PCG7: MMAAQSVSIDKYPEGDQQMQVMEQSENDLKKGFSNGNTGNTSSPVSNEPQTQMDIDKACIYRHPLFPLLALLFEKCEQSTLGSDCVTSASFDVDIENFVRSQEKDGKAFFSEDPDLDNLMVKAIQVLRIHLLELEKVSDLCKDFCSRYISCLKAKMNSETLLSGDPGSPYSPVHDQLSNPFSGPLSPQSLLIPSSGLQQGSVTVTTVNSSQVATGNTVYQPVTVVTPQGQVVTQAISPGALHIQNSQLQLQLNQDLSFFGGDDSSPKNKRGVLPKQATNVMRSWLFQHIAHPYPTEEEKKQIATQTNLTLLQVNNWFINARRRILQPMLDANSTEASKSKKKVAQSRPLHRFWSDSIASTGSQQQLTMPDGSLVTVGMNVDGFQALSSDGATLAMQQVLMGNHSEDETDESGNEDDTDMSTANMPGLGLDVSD

Columns and labels:
[1] = target: Flag-NF-YA (zebrafish); assay: co-IP; pairwise combinations co-transfected in HEK293 (HEK-293T) cells; lysis and five washes in Co-IP Buffer (50 mM Tris-HCl pH 7.5, 150 mM NaCl, 0.2 mM EDTA, 1 mM DTT, 0.5% Triton X100); 8 ug antibody overnight at 4°C, Protein A/G Agarose beads; Western blot
[2] = target: Flag-NF-YB (zebrafish) (UniProt Q5CZV3); assay: as above

binding [1]	binding [2]	Molecule
binds	binds	6xMyc-Prep1.1 (from UniProt A0A8M1PCG7)
binds	binds	HA-Pbx4 (protein, UniProt Q9PW77 1-343) MDDQTRMLASMGGLGGLSQADVGDPDSVRKQQSLGQPQQDIGDILQQIMAITDESLDEAQARKHALNCHRLKPALFSVLCEIKEKTVLSIRGVQEEDPPDPQIMRLDNMLLAEGVSGPEKGGGSAAAAAAAAAAGGSPNDGSIEHSDYRAKLAQIRQIYHSELEKYEQACSEFTNHVMNLLREQSRTRPISPKEIERMVAIIHRKFSSIQMQLKQSTCEAVMILRSRFLDARRKRRNFNKQATEVLNEYFYSHLSNPYPSEEAKEELAKKCGITVSQVSNWFGNKRIRYKKNIGKFQEEANLYAVKTAVDAANVSAQASQANSPATPNSGGYPAPCYTPDGRL

These are yes or no findings as the source states them, for the method shown. In cells and extracts the contact can be indirect. Binding calls can cover weak binding; strength is not graded here. Sequences can lack the tags named with a protein.
